{
  "source": "paper PMC7819943",
  "about": "“Rice protein-binding microarrays: a tool to detect cis-acting elements near promoter regions in rice”",
  "note": "The list shows a part of the results.",
  "data": [
    {"target": "T1, OsSMF1 (Oryza sativa, UniProt Q6ZLB0 1-436)", "T1 sequence": "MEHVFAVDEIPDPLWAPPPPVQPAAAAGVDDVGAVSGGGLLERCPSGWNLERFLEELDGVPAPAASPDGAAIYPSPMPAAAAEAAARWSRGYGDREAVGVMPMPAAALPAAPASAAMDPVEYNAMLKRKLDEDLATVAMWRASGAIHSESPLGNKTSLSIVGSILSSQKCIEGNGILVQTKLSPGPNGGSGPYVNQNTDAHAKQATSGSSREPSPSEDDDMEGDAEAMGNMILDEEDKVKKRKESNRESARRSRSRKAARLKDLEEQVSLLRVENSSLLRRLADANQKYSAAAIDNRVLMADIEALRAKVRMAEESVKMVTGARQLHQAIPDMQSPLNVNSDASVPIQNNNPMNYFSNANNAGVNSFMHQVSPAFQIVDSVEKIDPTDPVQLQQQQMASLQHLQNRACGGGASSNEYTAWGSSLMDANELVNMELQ", "test": "protein-binding microarray (RPBM); PBS, 2% BSA, 51.3 ng/ul salmon testes DNA, 50 uM zinc acetate, 200 nM TF, 25 C, 1 h; high values mean tight binding", "details": "protein: recombinant; tags: N-terminal polyhistidine and DsRed monomer fusion (pET32a); chain copies: 2; label: CyDye5-dUTP incorporated in the synthesized complementary strand; 3' TTTTT single-stranded linker to array surface; dsDNA, one strand shown", "how_it_was_run": "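Transcription factors, each fused N-terminally to a polyhistidine tag and DsRed, were expressed in E. coli BL21-CodonPlus and purified on Ni–NTA. A custom Agilent array was made double-stranded by primer extension with Cy5-dUTP and blocked with 2% BSA. It was incubated with 200 nM protein in PBS, 2% BSA, salmon testes DNA and 50 µM zinc acetate at 25 °C for 1 h, then washed. The binding signal is per-feature fluorescence intensity (arbitrary units) read on an Axon 4000B scanner.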", "values": [
      {"sequence": "ATCGAGAAACGACGTCAGAGTTTCGTCCACGTCACCATGACGGAGTCACCTAGTGCAG", "binding signal": "15000 fluorescence intensity (a.u.)"},
      {"sequence": "TGCCCGGCTGCCCTGCCCCATCCTCGTCAAGCCCTCCTCCCGGAGTCACCTAGTGCAG", "binding signal": "3860 fluorescence intensity (a.u.)"},
      {"sequence": "CGCCCTTAATGTTGCAAATATACACGCTCACGCACGAAGTCGGAGTCACCTAGTGCAG", "binding signal": "3730 fluorescence intensity (a.u.)"},
      {"sequence": "TCTCATGAACTTGGGCCGAGCTTGTGACATGTCCCGTCTTCGGAGTCACCTAGTGCAG", "binding signal": "3670 fluorescence intensity (a.u.)"},
      {"sequence": "TGGGGCCCACATCCCGCACCACTCGGATTCGGATTTCCTCCGGAGTCACCTAGTGCAG", "binding signal": "52200 fluorescence intensity (a.u.)"},
      {"sequence": "CATACCTTCCGTATTAGTAGAAGGTACTAAAATTGACATTCGGAGTCACCTAGTGCAG", "binding signal": "13600 fluorescence intensity (a.u.)"},
      {"sequence": "CGGCCGCCCTCCGTCACGTTCCGCTGCCTCCGCCCCAGAACGGAGTCACCTAGTGCAG", "binding signal": "4380 fluorescence intensity (a.u.)"},
      {"sequence": "AAGATGGGAGAACGGAGGAAGAAGATGGAACTAAAATGTGCGGAGTCACCTAGTGCAG", "binding signal": "3260 fluorescence intensity (a.u.)"},
      {"sequence": "ATCTCATCTCATCGACCACACCTGCATCATCAATCTGCCTCGGAGTCACCTAGTGCAG", "binding signal": "3430 fluorescence intensity (a.u.)"},
      {"sequence": "TTTCTCTCCTACGTACACGCACGCGCGGTAACGAGTTAACCGGAGTCACCTAGTGCAG", "binding signal": "3930 fluorescence intensity (a.u.)"},
      {"sequence": "CACGCTGACTTAACCGCACGTTAGCCAAAACTGTTCTCAGCGGAGTCACCTAGTGCAG", "binding signal": "3890 fluorescence intensity (a.u.)"},
      {"sequence": "CCCCGCACGCTGCACGCATTCGCAGCGAGCGACGCAGCCACGGAGTCACCTAGTGCAG", "binding signal": "3140 fluorescence intensity (a.u.)"},
      {"sequence": "CCCAGATACACCGTTTTCCCTTCCGCGTCACTCCCAGGGCCGGAGTCACCTAGTGCAG", "binding signal": "7160 fluorescence intensity (a.u.)"},
      {"sequence": "GTAGTAGTACAGCGCACAGGCCACGCGTGCGCGTCCACCGCGGAGTCACCTAGTGCAG", "binding signal": "4860 fluorescence intensity (a.u.)"},
      {"sequence": "CGCATGTACACCTGTTCACATAATGACACGATCAAAATCTCGGAGTCACCTAGTGCAG", "binding signal": "4080 fluorescence intensity (a.u.)"},
      {"sequence": "ATGAAAGGGAATGTGTGGTGGAGGAGGTGGCTGAGAGATTCGGAGTCACCTAGTGCAG", "binding signal": "3340 fluorescence intensity (a.u.)"},
      {"sequence": "ATTAGATTTTCCACAGACACCACAAGCCAATTATACTTAACGGAGTCACCTAGTGCAG", "binding signal": "29500 fluorescence intensity (a.u.)"},
      {"sequence": "GTACTAGTACTATACGTGGATCGAGATGGATAATTAGATTCGGAGTCACCTAGTGCAG", "binding signal": "3560 fluorescence intensity (a.u.)"},
      {"sequence": "GTTATTAGTCTACGTTTAATACTTCAAATGTGTGTCCTTACGGAGTCACCTAGTGCAG", "binding signal": "3140 fluorescence intensity (a.u.)"},
      {"sequence": "CGGGGATCCGCTCCGCCGTCTCGCCTCCCGCCCCGTGGATCGGAGTCACCTAGTGCAG", "binding signal": "3300 fluorescence intensity (a.u.)"},
      {"sequence": "ACAATTGCTAATTCCACAAGTTTTGCCACATTGGCCTGCTCGGAGTCACCTAGTGCAG", "binding signal": "3370 fluorescence intensity (a.u.)"},
      {"sequence": "AATTACTACCATGTTGTAAATGCTGGGAATCAATCAACGGCGGAGTCACCTAGTGCAG", "binding signal": "26600 fluorescence intensity (a.u.)"},
      {"sequence": "CAGCAAGTAAACGGTCAAGATTCAAGCCGAAGAAGGGAGCCGGAGTCACCTAGTGCAG", "binding signal": "3400 fluorescence intensity (a.u.)"},
      {"sequence": "TCGAGGTCCCCACCATCATCCACGTCGGCATCCGCAGCTTCGGAGTCACCTAGTGCAG", "binding signal": "19900 fluorescence intensity (a.u.)"},
      {"sequence": "CAGGGCAGGGGCGGAGCTAGAATAAAATGAAGAGGGTTTCCGGAGTCACCTAGTGCAG", "binding signal": "3310 fluorescence intensity (a.u.)"},
      {"sequence": "GTGTGGCGAACAACATTGTCACGTCATTAGTAATTCATGTCGGAGTCACCTAGTGCAG", "binding signal": "4720 fluorescence intensity (a.u.)"},
      {"sequence": "ACATTTCTGTTATCCCGGTGGCTTTCTATCAATTTCGGCCCGGAGTCACCTAGTGCAG", "binding signal": "3670 fluorescence intensity (a.u.)"},
      {"sequence": "ATAATATAACAACACACCTCACCCAAACCCATTCATCCATCGGAGTCACCTAGTGCAG", "binding signal": "3160 fluorescence intensity (a.u.)"},
      {"sequence": "CCACACACGCACCCCTACACGCATGCTAGACCTATCAACTCGGAGTCACCTAGTGCAG", "binding signal": "3680 fluorescence intensity (a.u.)"},
      {"sequence": "ATAACATCATTGTGGGATCCACCCTTATATGTTTGGTGATCGGAGTCACCTAGTGCAG", "binding signal": "13800 fluorescence intensity (a.u.)"},
      {"sequence": "ACTAACAACGGCCGCAGCCCGCAGGCAGGTTGATCGATGACGGAGTCACCTAGTGCAG", "binding signal": "4600 fluorescence intensity (a.u.)"},
      {"sequence": "GATGGGCGGTGATCCACGTACGGCAGCGTCGGCCCCGCGGCGGAGTCACCTAGTGCAG", "binding signal": "6440 fluorescence intensity (a.u.)"},
      {"sequence": "CAAACTTCTAACCTTTTCATCACATCAAAACTTTTCTATACGGAGTCACCTAGTGCAG", "binding signal": "63600 fluorescence intensity (a.u.)"},
      {"sequence": "GAGTACTACGAGAAGCAGTCGCGCCACATCCTCGACACCACGGAGTCACCTAGTGCAG", "binding signal": "4330 fluorescence intensity (a.u.)"},
      {"sequence": "CCTTTTCCGGCTCCCCGACGAGTCACGTACACGTCAGTCTCGGAGTCACCTAGTGCAG", "binding signal": "17200 fluorescence intensity (a.u.)"},
      {"sequence": "GAATTTCCCGTCGCCCGTCAGCTTCCATCTGATCTCGTCACGGAGTCACCTAGTGCAG", "binding signal": "11200 fluorescence intensity (a.u.)"},
      {"sequence": "GCCTCTTAAGTTTGATGAAGATGATGTGGAAGAAATTGGACGGAGTCACCTAGTGCAG", "binding signal": "6630 fluorescence intensity (a.u.)"},
      {"sequence": "GCCTTTCCGCCACCTCGGTACGTGTTCGACATGTTACGCACGGAGTCACCTAGTGCAG", "binding signal": "3380 fluorescence intensity (a.u.)"},
      {"sequence": "AAAATATGACGCTACACTTTTCACTTGATTTCAATCACTTCGGAGTCACCTAGTGCAG", "binding signal": "3810 fluorescence intensity (a.u.)"},
      {"sequence": "CACTGGTCATGGAGCTGAGGGCGTCACACTGCGATTTGCGCGGAGTCACCTAGTGCAG", "binding signal": "4020 fluorescence intensity (a.u.)"},
      {"sequence": "ATCCTGACTCCCTGAGTATGACAACGTTTGTTAAACTGTGCGGAGTCACCTAGTGCAG", "binding signal": "3760 fluorescence intensity (a.u.)"},
      {"sequence": "CATAAATGAGATCCAGTGACGGCATGAGCATGTCCCAATTCGGAGTCACCTAGTGCAG", "binding signal": "24900 fluorescence intensity (a.u.)"}
    ]}
  ]
}
